Experimental data reported in publication PMC8102982.
Results are given in words; binding and its absence hold for the method and conditions named. Binding seen in cells or lysates may run through a third protein. Some binding calls cover weakened binding; strength is not graded here.

Sequences of proteins named here, by UniProt entry; tags and fusion partners are left off.
UniProt Q9Y572: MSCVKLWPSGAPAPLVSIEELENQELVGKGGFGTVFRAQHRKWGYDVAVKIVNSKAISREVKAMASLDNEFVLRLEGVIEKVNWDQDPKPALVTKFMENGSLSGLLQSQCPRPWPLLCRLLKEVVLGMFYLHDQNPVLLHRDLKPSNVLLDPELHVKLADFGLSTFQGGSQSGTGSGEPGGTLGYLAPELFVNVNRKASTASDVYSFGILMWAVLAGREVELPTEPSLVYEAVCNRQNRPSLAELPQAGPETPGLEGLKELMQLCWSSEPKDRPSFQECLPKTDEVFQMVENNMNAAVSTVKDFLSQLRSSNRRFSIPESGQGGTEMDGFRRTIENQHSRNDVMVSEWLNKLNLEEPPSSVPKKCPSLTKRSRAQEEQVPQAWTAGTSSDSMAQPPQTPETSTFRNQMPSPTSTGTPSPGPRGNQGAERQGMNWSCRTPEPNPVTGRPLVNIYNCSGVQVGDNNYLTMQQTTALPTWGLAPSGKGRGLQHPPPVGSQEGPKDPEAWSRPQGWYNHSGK
UniProt Q13546: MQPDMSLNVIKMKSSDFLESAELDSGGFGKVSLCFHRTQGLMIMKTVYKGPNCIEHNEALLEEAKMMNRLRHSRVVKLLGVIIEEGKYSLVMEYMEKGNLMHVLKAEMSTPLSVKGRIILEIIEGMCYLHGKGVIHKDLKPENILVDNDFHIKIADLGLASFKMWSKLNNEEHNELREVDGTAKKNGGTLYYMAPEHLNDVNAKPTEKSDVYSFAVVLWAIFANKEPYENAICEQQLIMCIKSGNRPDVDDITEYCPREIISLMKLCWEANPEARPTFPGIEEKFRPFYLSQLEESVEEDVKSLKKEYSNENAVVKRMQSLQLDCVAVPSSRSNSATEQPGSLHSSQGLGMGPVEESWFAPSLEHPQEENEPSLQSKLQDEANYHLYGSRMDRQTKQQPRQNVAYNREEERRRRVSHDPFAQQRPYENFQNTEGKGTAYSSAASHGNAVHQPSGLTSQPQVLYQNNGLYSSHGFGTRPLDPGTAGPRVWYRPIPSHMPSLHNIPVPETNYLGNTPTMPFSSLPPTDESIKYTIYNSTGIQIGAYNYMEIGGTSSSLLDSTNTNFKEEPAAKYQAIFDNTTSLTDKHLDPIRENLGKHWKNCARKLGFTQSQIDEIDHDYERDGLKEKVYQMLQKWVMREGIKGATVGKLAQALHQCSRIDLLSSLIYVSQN

Key:
[1] = target: receptor-interacting protein kinase 3 (human (endogenous in LO2)) (UniProt Q9Y572); assay: co-IP; LO2 cell lysates incubated with anti-RIPK1 or anti-RIPK3 antibody, protein G-agarose beads overnight, western blot; cells treated with LPS + D-Gal for 4 h, then with YQJPF or atractylone, in Figure 8F also pre-treated with 50 uM Nec-1
[2] = target: receptor-interacting protein kinase 1 (human (endogenous in LO2)) (UniProt Q13546); assay: as above

Row | Substance | binding [1] | binding [2]
1 | receptor-interacting protein kinase 1 (from UniProt Q13546 1-671) | binds | –
2 | receptor-interacting protein kinase 3 (from UniProt Q9Y572 1-518) | – | binds
